Measured values published in patent US20180148492A1 (CHILDREN S HOSPITAL MEDICAL CENTER, published 2018).
No constants are given. Whether binding was seen depends on the method and setting. Binding seen in cells or lysates may run through a third protein. Some binding calls cover weakened binding; strength is not graded here. For part of these data: Sequences can lack the tags named with a protein.

By UniProt entry, the sequences of proteins in these tests, tags left out. Residues count along the entry.
UniProt P35221: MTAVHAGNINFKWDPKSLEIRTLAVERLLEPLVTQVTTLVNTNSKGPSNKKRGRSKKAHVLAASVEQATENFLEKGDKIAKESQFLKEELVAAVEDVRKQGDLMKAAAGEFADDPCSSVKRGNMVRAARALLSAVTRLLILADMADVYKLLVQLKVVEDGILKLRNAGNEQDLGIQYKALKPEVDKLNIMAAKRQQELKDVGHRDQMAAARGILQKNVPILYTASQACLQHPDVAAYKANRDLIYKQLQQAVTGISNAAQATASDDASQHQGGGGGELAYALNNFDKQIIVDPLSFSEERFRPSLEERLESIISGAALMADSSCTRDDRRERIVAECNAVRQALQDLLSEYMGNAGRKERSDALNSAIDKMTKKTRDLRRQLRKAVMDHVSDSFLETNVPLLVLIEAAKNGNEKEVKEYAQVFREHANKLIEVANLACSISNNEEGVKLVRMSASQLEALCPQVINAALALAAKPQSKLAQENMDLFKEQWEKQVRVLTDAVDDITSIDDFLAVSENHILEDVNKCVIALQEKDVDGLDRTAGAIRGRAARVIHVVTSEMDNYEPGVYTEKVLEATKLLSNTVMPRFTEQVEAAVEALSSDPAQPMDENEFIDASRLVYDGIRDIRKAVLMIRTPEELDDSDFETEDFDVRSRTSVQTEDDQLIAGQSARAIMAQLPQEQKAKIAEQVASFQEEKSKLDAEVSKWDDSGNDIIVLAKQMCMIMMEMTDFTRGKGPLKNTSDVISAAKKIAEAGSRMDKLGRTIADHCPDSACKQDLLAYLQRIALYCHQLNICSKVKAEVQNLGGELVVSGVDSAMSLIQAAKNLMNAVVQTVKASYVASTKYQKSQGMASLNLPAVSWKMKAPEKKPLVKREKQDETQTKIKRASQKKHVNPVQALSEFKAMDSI
UniProt P13612, residues 34-1032: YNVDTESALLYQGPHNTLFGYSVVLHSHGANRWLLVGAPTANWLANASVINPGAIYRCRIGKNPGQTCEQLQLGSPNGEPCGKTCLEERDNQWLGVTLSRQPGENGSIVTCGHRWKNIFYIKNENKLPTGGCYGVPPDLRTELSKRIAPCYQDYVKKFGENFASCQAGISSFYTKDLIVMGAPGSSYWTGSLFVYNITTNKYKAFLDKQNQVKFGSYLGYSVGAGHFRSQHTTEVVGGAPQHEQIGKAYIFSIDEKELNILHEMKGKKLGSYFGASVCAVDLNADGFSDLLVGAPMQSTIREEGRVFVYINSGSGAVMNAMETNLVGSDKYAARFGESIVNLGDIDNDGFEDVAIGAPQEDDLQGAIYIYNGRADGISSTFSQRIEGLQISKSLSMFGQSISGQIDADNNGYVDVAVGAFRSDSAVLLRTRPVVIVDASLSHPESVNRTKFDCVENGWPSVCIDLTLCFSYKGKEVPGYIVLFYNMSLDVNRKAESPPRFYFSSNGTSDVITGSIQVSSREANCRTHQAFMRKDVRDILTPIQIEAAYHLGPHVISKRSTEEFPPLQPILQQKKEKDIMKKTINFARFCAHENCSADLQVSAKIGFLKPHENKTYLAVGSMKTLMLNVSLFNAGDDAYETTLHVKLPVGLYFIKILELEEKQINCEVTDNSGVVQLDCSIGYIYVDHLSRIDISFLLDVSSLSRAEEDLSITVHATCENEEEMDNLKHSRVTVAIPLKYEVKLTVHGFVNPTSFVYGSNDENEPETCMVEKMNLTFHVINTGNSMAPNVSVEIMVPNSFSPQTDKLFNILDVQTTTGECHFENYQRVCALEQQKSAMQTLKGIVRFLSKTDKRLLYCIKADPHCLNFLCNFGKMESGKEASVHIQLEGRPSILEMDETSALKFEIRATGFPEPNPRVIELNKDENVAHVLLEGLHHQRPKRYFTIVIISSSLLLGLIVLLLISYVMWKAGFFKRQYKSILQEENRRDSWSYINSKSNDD
UniProt P35222: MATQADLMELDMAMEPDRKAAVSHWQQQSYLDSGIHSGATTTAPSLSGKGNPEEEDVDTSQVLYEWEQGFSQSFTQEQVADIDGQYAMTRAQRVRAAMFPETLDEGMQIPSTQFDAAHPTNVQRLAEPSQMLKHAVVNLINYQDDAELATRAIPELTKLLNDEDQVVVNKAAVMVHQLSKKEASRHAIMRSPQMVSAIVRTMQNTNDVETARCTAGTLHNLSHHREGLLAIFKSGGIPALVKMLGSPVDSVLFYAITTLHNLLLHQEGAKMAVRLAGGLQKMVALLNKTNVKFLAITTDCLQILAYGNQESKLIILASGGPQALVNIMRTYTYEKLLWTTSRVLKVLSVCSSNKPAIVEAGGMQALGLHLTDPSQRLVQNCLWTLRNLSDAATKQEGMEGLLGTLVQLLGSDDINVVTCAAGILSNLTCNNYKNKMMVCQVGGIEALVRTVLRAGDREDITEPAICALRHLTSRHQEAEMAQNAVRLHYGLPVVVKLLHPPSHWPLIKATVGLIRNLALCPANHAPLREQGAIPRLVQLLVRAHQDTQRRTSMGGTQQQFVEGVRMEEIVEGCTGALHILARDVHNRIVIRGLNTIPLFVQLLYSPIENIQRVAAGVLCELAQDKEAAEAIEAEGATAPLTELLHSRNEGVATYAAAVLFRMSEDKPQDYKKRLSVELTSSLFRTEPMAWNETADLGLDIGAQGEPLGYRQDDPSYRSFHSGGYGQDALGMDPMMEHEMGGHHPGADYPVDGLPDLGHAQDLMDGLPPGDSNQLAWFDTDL

Experiments:
HA-tagged CDH26 (human) [1] = biological target: T1, HA-tagged CDH26 (human) (UniProt Q8IXH8); assay: co-immunoprecipitation from HEK 293T cells overexpressing both proteins
T1 sequence: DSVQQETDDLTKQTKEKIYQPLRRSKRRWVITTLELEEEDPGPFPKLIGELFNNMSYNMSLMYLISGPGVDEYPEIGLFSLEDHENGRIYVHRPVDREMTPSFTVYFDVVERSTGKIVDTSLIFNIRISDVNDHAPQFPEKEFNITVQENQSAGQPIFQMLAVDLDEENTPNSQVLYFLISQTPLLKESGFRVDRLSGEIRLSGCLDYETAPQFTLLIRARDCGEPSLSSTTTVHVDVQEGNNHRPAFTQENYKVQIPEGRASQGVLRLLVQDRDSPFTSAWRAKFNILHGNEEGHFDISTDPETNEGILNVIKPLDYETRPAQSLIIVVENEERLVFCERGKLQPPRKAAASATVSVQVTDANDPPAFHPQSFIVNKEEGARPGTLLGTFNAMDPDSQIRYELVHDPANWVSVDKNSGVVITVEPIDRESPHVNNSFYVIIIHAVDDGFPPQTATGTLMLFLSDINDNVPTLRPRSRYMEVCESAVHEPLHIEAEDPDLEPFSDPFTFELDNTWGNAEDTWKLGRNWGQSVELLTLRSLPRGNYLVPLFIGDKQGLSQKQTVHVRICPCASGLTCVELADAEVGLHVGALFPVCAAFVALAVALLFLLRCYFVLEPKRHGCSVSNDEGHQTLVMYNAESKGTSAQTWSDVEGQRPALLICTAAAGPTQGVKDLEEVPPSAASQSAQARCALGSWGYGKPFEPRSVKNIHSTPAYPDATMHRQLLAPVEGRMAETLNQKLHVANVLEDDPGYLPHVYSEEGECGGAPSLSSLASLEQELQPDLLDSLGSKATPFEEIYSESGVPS

HA-tagged CDH26 (human) [2] = biological target: T1, HA-tagged CDH26 (human); assay: summary of the co-immunoprecipitations
alpha-catenin = alpha-catenin (UniProt P35221); assay: co-immunoprecipitation from transfected HEK 293T cells, western blot

Row | Substance | binding (HA-tagged CDH26 (human) [1]) | binding (HA-tagged CDH26 (human) [2]) | binding (alpha-catenin)
1 | integrin α4 overexpressed in HEK 293T cells (from UniProt P13612 34-1032) (receptor) | binds | binds | –
2 | beta-catenin (positive control in the alpha-catenin immunoprecipitation) (from UniProt P35222 1-781) | – | – | binds
